In brackets after ≈: the same amount, converted by molar mass.
How the values were obtained:
[1] = test system: Escherichia coli ATCC 10798; assay: Minimum inhibitory concentration; assay type: cell-based; conditions: ATCC10798, read-out: MIC, Escherichia coli ATCC 10798, with 0.002% polysorbate 80
[2] = test system: Staphylococcus aureus ATCC 29213; assay: Minimum inhibitory concentration; assay type: cell-based; conditions: ATCC29213, read-out: MIC, Staphylococcus aureus ATCC 29213, with 0.002% polysorbate 80

For CN[C@H](CC(C)C)C(=O)N[C@H]1C(=O)N[C@@H](CC(N)=O)C(=O)N[C@H]2C(=O)N[C@H]3C(=O)N[C@H](C(=O)N[C@H](C(=O)O)c4cc(O)cc(O)c4-c4cc3ccc4O)[C@H](O)c3ccc(c(Cl)c3)Oc3cc2cc(c3O[C@@H]2O[C@H](CO)[C@@H](O)[C@H](O)[C@H]2O[C@H]2C[C@](C)(N)[C@H](O)[C@H](C)O2)Oc2ccc(cc2Cl)[C@H]1O [vancomycin], which MIC [1] is on record?
The MIC was > 8 µg/mL.

What about the MIC [2] of the same compound?
The MIC was 0.125 µg/mL (≈ 0.0863 µM).

— publication PMC7814697 (The Journal of organic chemistry, 2019)
